According to the supplement of paper PMC10849652:
The list shows a part of the results.

Sequences of proteins named here, by UniProt entry; tags and fusion partners are left off. A change or cut given only in a name is not applied to a line headed by its entry.
UniProt Q8NI36: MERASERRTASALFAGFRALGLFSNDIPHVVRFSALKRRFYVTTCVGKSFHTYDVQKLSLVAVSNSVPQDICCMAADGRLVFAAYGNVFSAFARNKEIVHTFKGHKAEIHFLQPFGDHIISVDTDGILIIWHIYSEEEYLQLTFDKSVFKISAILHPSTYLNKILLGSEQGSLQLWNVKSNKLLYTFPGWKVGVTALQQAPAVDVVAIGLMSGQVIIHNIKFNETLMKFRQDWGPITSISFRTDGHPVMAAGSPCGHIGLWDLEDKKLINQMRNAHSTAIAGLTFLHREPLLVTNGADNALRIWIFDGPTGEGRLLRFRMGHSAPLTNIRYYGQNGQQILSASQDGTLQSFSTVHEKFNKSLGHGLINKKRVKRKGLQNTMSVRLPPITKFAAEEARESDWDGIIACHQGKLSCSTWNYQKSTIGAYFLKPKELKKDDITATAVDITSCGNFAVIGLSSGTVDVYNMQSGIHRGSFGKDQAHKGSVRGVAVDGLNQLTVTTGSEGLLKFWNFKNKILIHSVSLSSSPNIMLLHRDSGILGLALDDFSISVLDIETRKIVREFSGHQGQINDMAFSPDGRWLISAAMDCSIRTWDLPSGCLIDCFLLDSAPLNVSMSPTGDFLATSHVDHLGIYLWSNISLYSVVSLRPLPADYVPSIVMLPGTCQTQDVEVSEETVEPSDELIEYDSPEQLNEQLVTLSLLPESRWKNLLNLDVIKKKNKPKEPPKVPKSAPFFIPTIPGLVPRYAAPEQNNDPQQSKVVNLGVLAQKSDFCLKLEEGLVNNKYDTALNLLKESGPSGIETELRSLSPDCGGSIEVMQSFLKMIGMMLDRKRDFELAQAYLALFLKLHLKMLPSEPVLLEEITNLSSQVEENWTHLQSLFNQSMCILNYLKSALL
UniProt P04004: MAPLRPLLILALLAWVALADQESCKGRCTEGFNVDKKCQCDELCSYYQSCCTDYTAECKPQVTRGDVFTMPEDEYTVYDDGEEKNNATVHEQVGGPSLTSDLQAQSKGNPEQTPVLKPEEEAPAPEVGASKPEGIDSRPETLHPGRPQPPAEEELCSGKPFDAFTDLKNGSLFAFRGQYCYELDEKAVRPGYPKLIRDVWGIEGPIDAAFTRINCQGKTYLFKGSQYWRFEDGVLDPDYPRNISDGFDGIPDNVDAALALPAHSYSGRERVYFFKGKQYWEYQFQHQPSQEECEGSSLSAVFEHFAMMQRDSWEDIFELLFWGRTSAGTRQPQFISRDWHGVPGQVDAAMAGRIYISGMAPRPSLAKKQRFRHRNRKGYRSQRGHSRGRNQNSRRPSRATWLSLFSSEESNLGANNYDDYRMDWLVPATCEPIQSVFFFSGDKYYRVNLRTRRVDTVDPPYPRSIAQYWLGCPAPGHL
UniProt A3KMH1: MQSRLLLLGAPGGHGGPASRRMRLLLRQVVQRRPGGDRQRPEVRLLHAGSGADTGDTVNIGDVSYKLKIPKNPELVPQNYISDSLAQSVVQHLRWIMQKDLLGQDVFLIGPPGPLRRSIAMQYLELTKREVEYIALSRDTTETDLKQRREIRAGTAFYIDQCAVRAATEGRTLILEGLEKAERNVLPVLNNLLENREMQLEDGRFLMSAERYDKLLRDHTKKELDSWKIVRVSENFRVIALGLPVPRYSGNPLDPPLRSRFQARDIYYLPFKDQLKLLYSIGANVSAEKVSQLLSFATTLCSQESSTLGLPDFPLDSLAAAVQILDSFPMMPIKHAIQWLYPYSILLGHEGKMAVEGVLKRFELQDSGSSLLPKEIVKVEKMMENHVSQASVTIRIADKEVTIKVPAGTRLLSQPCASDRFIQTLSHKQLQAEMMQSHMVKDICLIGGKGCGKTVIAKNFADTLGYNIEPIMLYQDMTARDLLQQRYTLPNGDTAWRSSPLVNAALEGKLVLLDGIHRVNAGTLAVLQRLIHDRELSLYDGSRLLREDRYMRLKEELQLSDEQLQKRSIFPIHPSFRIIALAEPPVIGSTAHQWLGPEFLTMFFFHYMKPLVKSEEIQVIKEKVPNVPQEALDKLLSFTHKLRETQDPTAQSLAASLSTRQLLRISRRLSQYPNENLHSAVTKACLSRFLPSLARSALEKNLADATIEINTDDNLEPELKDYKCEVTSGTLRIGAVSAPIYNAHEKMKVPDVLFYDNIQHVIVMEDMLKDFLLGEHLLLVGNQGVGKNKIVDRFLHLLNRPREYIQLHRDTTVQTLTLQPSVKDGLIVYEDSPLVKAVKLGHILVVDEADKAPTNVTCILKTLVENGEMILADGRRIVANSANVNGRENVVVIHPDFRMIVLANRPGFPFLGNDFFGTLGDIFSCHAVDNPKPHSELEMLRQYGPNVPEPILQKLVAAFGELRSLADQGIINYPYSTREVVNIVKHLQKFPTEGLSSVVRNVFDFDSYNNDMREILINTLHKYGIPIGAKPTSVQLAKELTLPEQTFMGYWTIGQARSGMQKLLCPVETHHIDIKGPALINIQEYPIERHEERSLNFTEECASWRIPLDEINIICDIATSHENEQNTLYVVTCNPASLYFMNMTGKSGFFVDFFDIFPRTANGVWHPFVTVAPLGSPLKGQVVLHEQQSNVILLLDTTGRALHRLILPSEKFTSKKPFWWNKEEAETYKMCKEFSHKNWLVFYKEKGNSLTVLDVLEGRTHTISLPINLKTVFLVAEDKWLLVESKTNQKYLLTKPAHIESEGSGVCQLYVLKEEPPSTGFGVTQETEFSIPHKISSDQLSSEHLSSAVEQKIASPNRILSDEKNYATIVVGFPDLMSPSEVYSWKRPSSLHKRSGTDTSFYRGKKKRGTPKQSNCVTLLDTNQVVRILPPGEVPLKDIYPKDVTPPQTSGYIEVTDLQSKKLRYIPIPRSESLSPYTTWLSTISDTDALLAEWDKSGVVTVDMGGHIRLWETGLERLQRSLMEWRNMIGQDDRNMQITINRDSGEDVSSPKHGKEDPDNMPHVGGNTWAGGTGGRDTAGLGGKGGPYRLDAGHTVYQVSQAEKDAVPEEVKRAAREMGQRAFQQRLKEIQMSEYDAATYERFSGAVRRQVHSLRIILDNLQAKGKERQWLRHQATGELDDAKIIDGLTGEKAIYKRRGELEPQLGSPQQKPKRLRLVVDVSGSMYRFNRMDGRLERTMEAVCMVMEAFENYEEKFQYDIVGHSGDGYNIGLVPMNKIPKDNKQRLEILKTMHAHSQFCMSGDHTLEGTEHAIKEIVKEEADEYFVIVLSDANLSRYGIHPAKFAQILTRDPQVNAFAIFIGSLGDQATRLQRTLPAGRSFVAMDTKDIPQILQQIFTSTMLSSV
UniProt Q9BUR4: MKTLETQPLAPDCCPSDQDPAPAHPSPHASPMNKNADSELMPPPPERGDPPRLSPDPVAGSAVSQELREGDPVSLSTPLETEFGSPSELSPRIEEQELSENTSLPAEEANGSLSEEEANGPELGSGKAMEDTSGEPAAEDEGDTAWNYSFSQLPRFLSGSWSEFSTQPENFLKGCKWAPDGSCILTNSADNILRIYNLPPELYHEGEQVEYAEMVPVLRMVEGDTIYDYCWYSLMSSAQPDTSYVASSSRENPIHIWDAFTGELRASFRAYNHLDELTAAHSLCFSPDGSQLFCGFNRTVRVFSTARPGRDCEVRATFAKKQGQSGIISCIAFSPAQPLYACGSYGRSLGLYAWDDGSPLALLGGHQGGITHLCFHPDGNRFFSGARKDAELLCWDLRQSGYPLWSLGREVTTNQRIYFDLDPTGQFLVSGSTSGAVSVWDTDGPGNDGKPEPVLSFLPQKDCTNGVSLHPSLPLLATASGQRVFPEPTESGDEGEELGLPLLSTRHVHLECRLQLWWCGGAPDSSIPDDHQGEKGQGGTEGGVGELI
UniProt Q15007: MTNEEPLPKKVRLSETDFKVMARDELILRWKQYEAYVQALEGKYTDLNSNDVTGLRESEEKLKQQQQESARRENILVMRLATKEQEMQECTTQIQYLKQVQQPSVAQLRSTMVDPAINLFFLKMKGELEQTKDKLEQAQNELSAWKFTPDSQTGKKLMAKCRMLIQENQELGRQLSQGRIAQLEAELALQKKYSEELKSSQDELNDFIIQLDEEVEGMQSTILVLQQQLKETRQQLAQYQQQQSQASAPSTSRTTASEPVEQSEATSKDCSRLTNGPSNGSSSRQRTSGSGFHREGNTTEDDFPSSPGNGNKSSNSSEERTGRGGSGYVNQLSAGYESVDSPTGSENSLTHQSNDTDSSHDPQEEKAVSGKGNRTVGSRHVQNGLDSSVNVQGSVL

Experiments:
Assay in all cases: log2 fold change, soluble protein after heating vs DMSO (PISA); higher = thermal stabilisation; K562 cells, 10 uM, 30 min; active = over 0.2 and 3.5 SD of the protein, either way, in both replicates (recomputed)
[1] = compound: C1=CC=C(C=C1)[C@H](COC2=CC3=C(C=C2)NC(=O)N3)NC(=O)C4=CC=CN(C4=O)CC5=CC(=C(C=C5)F)F
Outline: (§1)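 Soluble protein was defined as the supernatant after 21,000xg for 90 min. It came from K562 cells at 2×10^6 cells/mL given 10 μM compound for 30 min, heated in aliquots for 3 min across 48°C-58°C, pooled, and extracted in PBS with 0.5% NP-40 at 4°C, and was quantified by TMTpro 16plex LC-MS/MS with equalised channel sums. Thermal stability against control samples, from duplicates, is reported as log2 fold change.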

[2] = compound: CC1=C(SC2=C1C(=N[C@H](C3=NN=C(N32)C)CC(=O)N)C4=CC=C(C=C4)Cl)C
Outline: as §1

[3] = compound: CC1=C2C(=CC=C1)N=C(N(C2=O)C3=CC=CC=C3C)CN4C=NC5=C(N=CN=C54)N
Outline: as §1

[4] = compound: Cc1sc2c(c1C)C(c1ccc(Cl)cc1)=N[C@@H](CC(=O)OC(C)(C)C)c1nnc(C)n1-2
Outline: as §1

[5] = compound: c1ccc([C@@H]2C[C@H]2NC2CCNCC2)cc1
Outline: as §1

Measured: log2 fold change

WDR36 (UniProt Q8NI36)
inactive: [1] 0.033 | [2] -0.101 | [3] -0.092 | [4] 0.071 | [5] 0

VTN (UniProt P04004)
inactive: [1] -0.1 | [2] 0.051 | [3] -0.03 | [4] 0.121 | [5] -0.009

VWA8 (UniProt A3KMH1)
inactive: [1] -0.03 | [2] 0.023 | [3] 0.091 | [4] -0.044 | [5] -0.052

WRAP53 (UniProt Q9BUR4)
inactive: [1] 0.039 | [2] -0.137 | [3] -0.02 | [4] 0.039 | [5] 0.042

WTAP (UniProt Q15007)
inactive: [3] 0.002
